The other results are listed elsewhere or left out.
What was measured:
Assay in all cases: glycan array binding signal (z-score within array); higher = stronger binding
Conditions in all cases: glycan notation: IUPAC condensed, linker removed
[1] = molecular target: Gal6S(b1-4)Glc6S
Outline: (§1)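 The binding signal is a Z-score computed within each array and averaged over linkers. Arrays of the same protein sequence at different concentrations or buffers were also averaged together. Data originate from 3228 arrays in the Consortium for Functional Glycomics database, kept only where the protein sequence was available.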

[2] = molecular target: Gal6S(b1-4)GlcNAc
Outline: as §1

[3] = molecular target: Gal6S(b1-4)GlcNAc6S
Outline: as §1

[4] = molecular target: GalNAc(a1-3)Gal
Outline: as §1

[5] = molecular target: GalNAc(a1-3)GalNAc
Outline: as §1

[6] = molecular target: GalNAc(a1-3)GalNAc(b1-3)Gal(a1-4)Gal(b1-4)Glc
Outline: as §1

[7] = molecular target: GalNAc(a1-3)GalNAc(b1-3)Gal(a1-4)Gal(b1-4)GlcNAc
Outline: as §1

[8] = molecular target: GalNAc(b1-3)Gal
Outline: as §1

[9] = molecular target: GalNAc(b1-3)Gal(a1-4)Gal(b1-4)GlcNAc
Outline: as §1

[10] = molecular target: GalNAc(b1-3)Gal(a1-4)Gal(b1-4)GlcNAc(b1-3)Gal(b1-4)Glc
Outline: as §1

[11] = molecular target: GalNAc(b1-3)Gal(a1-6)Gal(b1-4)Glc
Outline: as §1

[12] = molecular target: GalNAc(b1-3)GalNAc
Outline: as §1

[13] = molecular target: GalNAc(b1-3)GlcNAc
Outline: as §1

[14] = molecular target: GalNAc(b1-4)Gal(b1-4)Glc
Outline: as §1

[15] = molecular target: GalNAc(b1-4)GlcNAc
Outline: as §1

[16] = molecular target: GalNAc(b1-4)GlcNAc(b1-2)Man
Outline: as §1

[17] = molecular target: GalNAc(b1-4)GlcNAc(b1-2)Man(a1-3)[GalNAc(b1-4)GlcNAc(b1-2)Man(a1-6)]Man(b1-4)GlcNAc(b1-4)GlcNAc
Outline: as §1

[18] = molecular target: GalNAc(b1-4)GlcNAc(b1-3)GalNAc(b1-4)GlcNAc
Outline: as §1

[19] = molecular target: GalNAc(b1-4)GlcNAc6S
Outline: as §1

[20] = molecular target: GalNAc(b1-6)GalNAc
Outline: as §1

[21] = molecular target: GalNAc3S(b1-4)GlcNAc
Outline: as §1

[22] = molecular target: GalNAc3S(b1-4)GlcNAc3S
Outline: as §1

[23] = molecular target: GalNAc3S(b1-4)[Fuc(a1-3)]GlcNAc
Outline: as §1

[24] = molecular target: GalNAc4S6S(b1-4)GlcNAc
Outline: as §1

[25] = molecular target: GalNAc6S(b1-4)GlcNAc
Outline: as §1

[26] = molecular target: Glc(a1-4)Glc
Outline: as §1

[27] = molecular target: Glc(a1-4)Glc(a1-4)Glc(a1-4)Glc
Outline: as §1

[28] = molecular target: Glc(a1-6)Glc(a1-6)Glc
Outline: as §1

[29] = molecular target: Glc(a1-6)Glc(a1-6)Glc(a1-6)Glc
Outline: as §1

[30] = molecular target: Glc(b1-4)Glc
Outline: as §1

[31] = molecular target: Glc(b1-6)Glc
Outline: as §1

[32] = molecular target: GlcA(b1-3)Gal
Outline: as §1

[33] = molecular target: GlcA(b1-3)GlcNAc
Outline: as §1

[34] = molecular target: GlcA(b1-6)Gal
Outline: as §1

[35] = molecular target: GlcA3S(b1-3)Gal(b1-4)GlcNAc(b1-2)Man
Outline: as §1

[36] = molecular target: GlcA3S(b1-3)Gal(b1-4)GlcNAc(b1-3)Gal(b1-4)Glc
Outline: as §1

[37] = molecular target: GlcNAc(a1-3)Gal(b1-4)GlcNAc
Outline: as §1

[38] = molecular target: GlcNAc(a1-4)Gal(b1-3)GlcNAc
Outline: as §1

[39] = molecular target: GlcNAc(a1-4)Gal(b1-4)GalNAc
Outline: as §1

[40] = molecular target: GlcNAc(a1-4)Gal(b1-4)GlcNAc
Outline: as §1

[41] = molecular target: GlcNAc(a1-4)Gal(b1-4)GlcNAc(b1-3)Gal(b1-4)Glc
Outline: as §1

[42] = molecular target: GlcNAc(a1-4)Gal(b1-4)GlcNAc(b1-3)Gal(b1-4)GlcNAc
Outline: as §1

[43] = molecular target: GlcNAc(a1-4)Gal(b1-4)GlcNAc(b1-3)Gal(b1-4)GlcNAc(b1-3)Gal(b1-4)GlcNAc
Outline: as §1

[44] = molecular target: GlcNAc(a1-4)Gal(b1-4)GlcNAc(b1-3)Gal(b1-4)[Fuc(a1-3)]GlcNAc(b1-3)Gal(b1-4)[Fuc(a1-3)]GlcNAc
Outline: as §1

[45] = molecular target: GlcNAc(a1-6)Gal(b1-4)GlcNAc
Outline: as §1

B1: Clone646PsrP (Streptococcus pneumoniae) (protein)
chain: MDHHHHHHHHASENLYFQGAPAINASLNIAKSETKVYTGEGVDSVYRVPIYYKLKVTNDGSKLTFTYTVTYVNPKTNDLGNISSMRPGYSIYNSGTSTQTMLTLGSDLGKPSGVKNYITDKNGRQVLSYNTSTMTTQGSGYTWGNGAQMNGFFAKKGYGLTSSWTVPITGTDTSFTFTPYAARTDRIGINYFNGGGKVVESSTTSQSLSQSKSLSVSAS
glycan array binding signal (z-score) [1]: 0.678
glycan array binding signal (z-score) [2]: -0.841
glycan array binding signal (z-score) [3]: -0.885
glycan array binding signal (z-score) [4]: 1.21
glycan array binding signal (z-score) [5]: -0.836
glycan array binding signal (z-score) [6]: -0.265
glycan array binding signal (z-score) [7]: -0.546
glycan array binding signal (z-score) [8]: -0.611
glycan array binding signal (z-score) [9]: 0.692
glycan array binding signal (z-score) [10]: -0.068
glycan array binding signal (z-score) [11]: -0.31
glycan array binding signal (z-score) [12]: 0.568
glycan array binding signal (z-score) [13]: 0.319
glycan array binding signal (z-score) [14]: 2.93
glycan array binding signal (z-score) [15]: 0.961
glycan array binding signal (z-score) [16]: 0.546
glycan array binding signal (z-score) [17]: -0.393
glycan array binding signal (z-score) [18]: -0.716
glycan array binding signal (z-score) [19]: 0.894
glycan array binding signal (z-score) [20]: 0.35
glycan array binding signal (z-score) [21]: 2.09
glycan array binding signal (z-score) [22]: -0.924
glycan array binding signal (z-score) [23]: 0.061
glycan array binding signal (z-score) [24]: -0.494
glycan array binding signal (z-score) [25]: 0.113
glycan array binding signal (z-score) [26]: 0.46
glycan array binding signal (z-score) [27]: 0.871
glycan array binding signal (z-score) [28]: -0.401
glycan array binding signal (z-score) [29]: 3.01
glycan array binding signal (z-score) [30]: 0.666
glycan array binding signal (z-score) [31]: -0.29
glycan array binding signal (z-score) [32]: -0.942
glycan array binding signal (z-score) [33]: 1.87
glycan array binding signal (z-score) [34]: 0.258
glycan array binding signal (z-score) [35]: -0.511
glycan array binding signal (z-score) [36]: 0.881
glycan array binding signal (z-score) [37]: -0.637
glycan array binding signal (z-score) [38]: -0.137
glycan array binding signal (z-score) [39]: 0.369
glycan array binding signal (z-score) [40]: -0.792
glycan array binding signal (z-score) [41]: -0.847
glycan array binding signal (z-score) [42]: -0.82
glycan array binding signal (z-score) [43]: -0.327
glycan array binding signal (z-score) [44]: -0.283
glycan array binding signal (z-score) [45]: 0.813

Source: the supplement of paper PMC8728848
